Results from PMC8552907.
Results are given in words; binding and its absence hold for the method and conditions named. Binding seen in cells or lysates may run through a third protein. These calls come from enrichment with a bait or labelling near it, and not all partners need be listed. For part of these data: Where a sequence is shown, tags or fusion partners need not be part of it.

Amino acid sequences for entries named in this document (tags omitted). A change or cut given only in a name is not applied to a line headed by its entry.
UniProt P07711: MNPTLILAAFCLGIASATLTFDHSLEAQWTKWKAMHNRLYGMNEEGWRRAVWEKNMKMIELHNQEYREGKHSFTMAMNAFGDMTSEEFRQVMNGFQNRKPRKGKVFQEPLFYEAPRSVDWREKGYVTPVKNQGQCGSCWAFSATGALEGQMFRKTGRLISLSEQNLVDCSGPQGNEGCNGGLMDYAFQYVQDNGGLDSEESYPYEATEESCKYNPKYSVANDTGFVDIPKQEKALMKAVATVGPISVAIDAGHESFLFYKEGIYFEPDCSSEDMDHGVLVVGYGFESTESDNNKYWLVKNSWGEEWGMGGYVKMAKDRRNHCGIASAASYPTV
UniProt O15393: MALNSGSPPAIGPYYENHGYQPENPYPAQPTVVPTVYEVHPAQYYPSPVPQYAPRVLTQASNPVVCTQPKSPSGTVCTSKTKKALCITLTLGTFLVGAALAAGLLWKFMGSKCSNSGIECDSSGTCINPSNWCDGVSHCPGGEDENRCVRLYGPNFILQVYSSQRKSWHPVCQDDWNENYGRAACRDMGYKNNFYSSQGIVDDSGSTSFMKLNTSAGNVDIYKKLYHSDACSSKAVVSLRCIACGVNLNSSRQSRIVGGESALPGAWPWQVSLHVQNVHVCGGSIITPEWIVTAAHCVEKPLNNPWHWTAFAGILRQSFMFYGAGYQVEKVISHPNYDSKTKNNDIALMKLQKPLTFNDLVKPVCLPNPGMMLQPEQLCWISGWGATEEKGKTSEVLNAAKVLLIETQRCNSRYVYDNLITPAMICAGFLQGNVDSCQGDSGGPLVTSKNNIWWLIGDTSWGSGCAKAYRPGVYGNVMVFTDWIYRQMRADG

Key:
[1] = biological target: MAC-tagged SARS-CoV-2 NSP6 (SARS-CoV-2) (UniProt P0DTD1); assay: affinity purification with mass spectrometry + proximity labelling
[2] = biological target: MAC-tagged SARS-CoV-2 NSP5 (SARS-CoV-2) (UniProt P0DTD1); assay: as above
[3] = biological target: MAC-tagged SARS-CoV-2 NSP14 (SARS-CoV-2) (UniProt P0DTD1); assay: as above
[4] = biological target: MAC-tagged SARS-CoV-2 NSP13 (SARS-CoV-2) (UniProt P0DTD1); assay: as above
[5] = biological target: T1, MAC-tagged DNA topoisomerase III beta (TOP3B) (human) (UniProt O95985); assay: affinity purification with mass spectrometry + proximity labelling; MAC-tagged bait in tetracycline-induced Flp-In 293 T-REx stable lines (with 50 uM biotin for 24 h for BioID); one-step purification of the lysate on Strep-Tactin Sepharose; LC-MS; high-confidence interactions at SAINTexpress BFDR <= 0.01; the text does not tell which of the two methods found each pair
T1 sequence: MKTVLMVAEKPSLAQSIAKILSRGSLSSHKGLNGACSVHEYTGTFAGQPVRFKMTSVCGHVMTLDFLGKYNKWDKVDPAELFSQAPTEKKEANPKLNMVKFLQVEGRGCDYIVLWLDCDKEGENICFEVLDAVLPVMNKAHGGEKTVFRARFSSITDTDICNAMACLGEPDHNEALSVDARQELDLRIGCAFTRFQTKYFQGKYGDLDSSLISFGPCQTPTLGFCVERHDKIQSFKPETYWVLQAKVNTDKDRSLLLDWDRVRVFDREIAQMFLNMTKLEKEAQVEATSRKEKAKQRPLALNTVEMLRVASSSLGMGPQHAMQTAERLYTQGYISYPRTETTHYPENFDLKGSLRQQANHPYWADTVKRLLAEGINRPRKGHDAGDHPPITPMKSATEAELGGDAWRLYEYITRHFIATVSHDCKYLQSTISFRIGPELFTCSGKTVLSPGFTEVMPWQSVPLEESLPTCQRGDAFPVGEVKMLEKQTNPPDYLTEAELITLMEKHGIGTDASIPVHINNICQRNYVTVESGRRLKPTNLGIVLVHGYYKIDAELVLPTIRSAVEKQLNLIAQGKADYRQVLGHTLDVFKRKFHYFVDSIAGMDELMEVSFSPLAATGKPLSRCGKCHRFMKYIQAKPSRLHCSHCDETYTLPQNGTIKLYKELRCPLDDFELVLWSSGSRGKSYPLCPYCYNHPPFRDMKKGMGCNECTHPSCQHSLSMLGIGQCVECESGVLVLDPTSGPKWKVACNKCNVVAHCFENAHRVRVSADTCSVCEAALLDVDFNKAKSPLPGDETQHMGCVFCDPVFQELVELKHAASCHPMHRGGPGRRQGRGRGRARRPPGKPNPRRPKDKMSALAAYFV

[6] = biological target: MAC-tagged cathepsin L (CTSL) (human) (UniProt P07711); assay: as above
[7] = biological target: MAC-tagged transmembrane serine protease 2 (TMPRSS2) (human) (UniProt O15393); assay: as above

Measured: binding

DEAD-box (DDX) RNA helicase DDX39B, endogenous prey (from UniProt Q13838 1-428) (enzyme)
binds: all assays above

DNA topoisomerase III beta (TOP3B), endogenous prey (from UniProt O95985 1-862) (enzyme)
binds: [3] | [4]
